Measured values from the supplement of paper PMC8728848.
The other results are listed elsewhere or left out.

Columns and labels:
Assay in all cases: glycan array binding signal (z-score within array); higher = stronger binding
Settings in all cases: glycan notation: IUPAC condensed, linker removed
Fuc(a1-2)Gal = target: Fuc(a1-2)Gal
Method in brief: (§1)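 Negative Z-scores can be read as non-binding. The Z-score is calculated within each array and then averaged across arrays of one protein sequence at different concentrations or buffers and across linkers. Arrays, 3228 in all, were curated from the Consortium for Functional Glycomics database and kept only where the protein sequence was available.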

Fuc(a1-2)Gal(b1-3)GalNAc = target: Fuc(a1-2)Gal(b1-3)GalNAc
Method in brief: as §1

[1] = target: Fuc(a1-2)Gal(b1-3)GalNAc(b1-3)Gal
Method in brief: as §1

[2] = target: Fuc(a1-2)Gal(b1-3)GalNAc(b1-3)Gal(a1-4)Gal(b1-4)Glc
Method in brief: as §1

[3] = target: Fuc(a1-2)Gal(b1-3)GalNAc(b1-3)Gal(b1-4)Glc
Method in brief: as §1

[4] = target: Fuc(a1-2)Gal(b1-3)GalNAc(b1-4)[Neu5Ac(a2-3)]Gal(b1-4)Glc
Method in brief: as §1

[5] = target: Fuc(a1-2)Gal(b1-3)[Fuc(a1-4)]GlcNAc
Method in brief: as §1

Fuc(a1-2)Gal(b1-4)Glc = target: Fuc(a1-2)Gal(b1-4)Glc
Method in brief: as §1

Fuc(a1-2)Gal(b1-4)Glc6S = target: Fuc(a1-2)Gal(b1-4)Glc6S
Method in brief: as §1

Fuc(a1-2)Gal(b1-4)GlcNAc = target: Fuc(a1-2)Gal(b1-4)GlcNAc
Method in brief: as §1

[6] = target: Fuc(a1-2)Gal(b1-4)GlcNAc(b1-3)Gal(b1-4)GlcNAc
Method in brief: as §1

[7] = target: Fuc(a1-2)Gal(b1-4)GlcNAc(b1-3)Gal(b1-4)GlcNAc(b1-3)Gal(b1-4)GlcNAc
Method in brief: as §1

[8] = target: Fuc(a1-2)Gal(b1-4)GlcNAc6S
Method in brief: as §1

[9] = target: Fuc(a1-2)Gal(b1-4)[Fuc(a1-3)]GalNAc(b1-3)Gal(b1-4)[Fuc(a1-3)]GlcNAc
Method in brief: as §1

[10] = target: Fuc(a1-2)Gal(b1-4)[Fuc(a1-3)]GalNAc(b1-3)Gal(b1-4)[Fuc(a1-3)]GlcNAc(b1-3)Gal(b1-4)[Fuc(a1-3)]GalNAc
Method in brief: as §1

[11] = target: Fuc(a1-2)Gal(b1-4)[Fuc(a1-3)]GlcNAc
Method in brief: as §1

Fuc(a1-2)Gal6S(b1-4)Glc = target: Fuc(a1-2)Gal6S(b1-4)Glc
Method in brief: as §1

[12] = target: Fuc(a1-2)Gal6S(b1-4)Glc6S
Method in brief: as §1

[13] = target: Fuc(a1-2)Gal6S(b1-4)GlcNAc
Method in brief: as §1

Fuc(a1-2)GlcNAc = target: Fuc(a1-2)GlcNAc
Method in brief: as §1

Fuc(a1-2)[Gal(a1-3)]Gal = target: Fuc(a1-2)[Gal(a1-3)]Gal
Method in brief: as §1

[14] = target: Fuc(a1-2)[Gal(a1-3)]Gal(b1-3)GlcNAc
Method in brief: as §1

[15] = target: Fuc(a1-2)[Gal(a1-3)]Gal(b1-4)Glc
Method in brief: as §1

[16] = target: Fuc(a1-2)[Gal(a1-3)]Gal(b1-4)GlcNAc
Method in brief: as §1

[17] = target: Fuc(a1-2)[Gal(a1-3)]Gal(b1-4)[Fuc(a1-3)]GlcNAc
Method in brief: as §1

[18] = target: Fuc(a1-2)[Gal(a1-4)]Gal(b1-4)GalNAc
Method in brief: as §1

[19] = target: Fuc(a1-2)[GalNAc(a1-3)]Gal
Method in brief: as §1

[20] = target: Fuc(a1-2)[GalNAc(a1-3)]Gal(b1-3)GlcNAc
Method in brief: as §1

[21] = target: Fuc(a1-2)[GalNAc(a1-3)]Gal(b1-4)Glc
Method in brief: as §1

[22] = target: Fuc(a1-2)[GalNAc(a1-3)]Gal(b1-4)GlcNAc
Method in brief: as §1

B1: Tim-4 (Mus musculus), Q6U7R4 (protein)
chain: MSKGLLLLWLVTELWWLYLTPAASEDTIIGFLGQPVTLPCHYLSWSQSRNSMCWGKGSCPNSKCNAELLRTDGTRIISRKSTKYTLLGKVQFGEVSLTISNTNRGDSGVYCCRIEVPGWFNDVKKNVRLELRRATTTKKPTTTTRPTTTPYVTTTTPELLPTTVMTTSVLPTTTPPQTLATTAFSTAVTTCPSTTPGSFSQETTKGSAFTTESETLPASNHSQRSMMTISTDIAVLRPTGSNPGILPSTSQLTTQKTTLTTSESLQKTTKSHQINSRQTILIIACCVGFVLMVLLFLAFLLRGKVTGANCLQRHKRPDNTEDSDSVLNDMSHGRDDEDGIFTL
glycan array binding signal (z-score) (Fuc(a1-2)Gal): 0.432
glycan array binding signal (z-score) (Fuc(a1-2)Gal(b1-3)GalNAc): -0.114
glycan array binding signal (z-score) [1]: 0.408
glycan array binding signal (z-score) [2]: 0.044
glycan array binding signal (z-score) [3]: -0.304
glycan array binding signal (z-score) [4]: -0.596
glycan array binding signal (z-score) [5]: -0.129
glycan array binding signal (z-score) (Fuc(a1-2)Gal(b1-4)Glc): -0.285
glycan array binding signal (z-score) (Fuc(a1-2)Gal(b1-4)Glc6S): -0.704
glycan array binding signal (z-score) (Fuc(a1-2)Gal(b1-4)GlcNAc): -0.04
glycan array binding signal (z-score) [6]: -0.92
glycan array binding signal (z-score) [7]: -0.337
glycan array binding signal (z-score) [8]: -0.318
glycan array binding signal (z-score) [9]: -0.501
glycan array binding signal (z-score) [10]: 0.502
glycan array binding signal (z-score) [11]: -0.17
glycan array binding signal (z-score) (Fuc(a1-2)Gal6S(b1-4)Glc): -0.217
glycan array binding signal (z-score) [12]: -0.345
glycan array binding signal (z-score) [13]: -0.749
glycan array binding signal (z-score) (Fuc(a1-2)GlcNAc): -0.042
glycan array binding signal (z-score) (Fuc(a1-2)[Gal(a1-3)]Gal): 0.259
glycan array binding signal (z-score) [14]: 0.285
glycan array binding signal (z-score) [15]: -0.353
glycan array binding signal (z-score) [16]: 0.043
glycan array binding signal (z-score) [17]: -0.055
glycan array binding signal (z-score) [18]: 0.022
glycan array binding signal (z-score) [19]: -0.169
glycan array binding signal (z-score) [20]: -0.402
glycan array binding signal (z-score) [21]: -0.344
glycan array binding signal (z-score) [22]: -0.326
